The campaign covered roughly 31,000 sequences. About 1,400 (4.5%) were called active.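 Rule for the calls: active = median seed-adjusted z-score above 1 or below -1; inactive = the rest.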 The list shows a part of the results.

The assay can be described thus: Novel Modifiers of Survival Motor Neuron (SMN) Protein: Gene Identification via Genome-wide siRNA Screen.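 Note: luminescence tracks full-length SMN protein made from the SMN2 reporter.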 As to conditions: HEK293T SMN2-luciferase reporter, siRNA knockdown, 72 h; actives lie on both sides. The method, boiled down: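 Genome-wide siRNA screen (10418 genes, 3 siRNAs each, 1 pmol per well) by reverse transfection in HEK293T cells stably carrying an SMN2-luciferase reporter; luminescence after 72 hours, normalized to negative-control siRNA, log10-transformed, MAD-scored.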
(A reporter such as luciferase makes a cellular process visible.)
Regarding CACCUUUCCUGGUACCAAATT against ENTPD5, the median seed-adjusted z-score was inactive: -0.355.
As for CAGACGAAUUUGUCUUUGATT against GIPC2, the figure is inactive: -0.0367; as for CAGGCAUUCUUACACCAAUTT against HSD17B6, inactive: 0.573; as for CCGUGACCGAGUCUCUUCATT against ENO1, inactive: 0.0766.
With CCGUAACCGUUUGUAUGGATT against MBNL2 the figure was inactive: -0.675; with GACCUUCUACAAACAAGAATT against ADAT2, inactive: 0.604; with AGACCCAGGUGAUCGCCUATT against HAAO, inactive: 0.214.
Consider GGUGGUGAAUGAAGGUUCATT against HINT1, for which the median seed-adjusted z-score was inactive: 0.873.
For GAACUAUGUUGACUGGAUATT against C1S, the median seed-adjusted z-score is inactive: -0.561.
With CGCUCAGGAUUUUAGUUCUTT against HOXC6 the figure was inactive: -0.137; with CCCUAUCUAUCAUCUAGCATT against SMOX, inactive: -0.148.
For the sequence CCGUUACAGAGAUAGCUUUTT against NCOA5, the median seed-adjusted z-score was inactive: 0.947.
With AGAGCGAGCUGUUACGGUATT against PCBP4 the figure was inactive: -0.269; with CAAAGUUCCUGAGCAAGGATT against SPRR3, inactive: 0.682; with GAGGCUUCAUUUUAGAAGATT against XPA, active: 2.03.
GAUUGUCAUUCAAGAUAUATT against CMBL: the median seed-adjusted z-score is inactive: 0.
With UCUUAUUGCUGACUUCAAATT against KLK15 the figure was inactive: 0; with CUAUGAUUAUAGCCGGGUATT against PTPN22, inactive: -0.0843.
GGGUGUACCUGAUUCUGGATT against AURKC: the median seed-adjusted z-score is inactive: -0.0275.
With ACUUAGUCAUCAUCAAGUATT against GK the figure was inactive: -0.474.
For GACUACGCCUUGAAGCUAATT against TAF6, the median seed-adjusted z-score is active: -1.36.
On to CACCUGGAGCGAUGGAAUCTT against FXYD1, for which the median seed-adjusted z-score was inactive: 0.276.
As for CCUCCGAGCUUAGCAAAGATT against RAD51C, the figure is inactive: -0.0724.
As for GGAUAGUAUGAAUGAUCAATT against SRP54, the figure is inactive: 0.203.
On to GACAAUAUCCUACCCAUUUTT against SLC25A16, for which the median seed-adjusted z-score is inactive: 0.0479.
With UAAUAAAGCGGAUUCUAGATT against THAP7 the figure was inactive: -0.0317; with GCAAUGAGGAUGUGACUAATT against PSIP1, inactive: 0.549.
As for CCUUUCAAGAGUCAAGUAATT against REXO4, the figure is inactive: -0.166; as for GAAUAUCACAAUACACUGUTT against FCGR1B, inactive: 0.2; as for CUGCCUACGUGAACUGGAUTT against TPSG1, inactive: 0.
With GCAUAGCUCUGGGCUACUATT against FIGN the figure was inactive: -0.2; with AGAGCUUUGUCAAAGAGGATT against CENTB5, inactive: 0.183; with GCAGGGAAAGGCUCUGAAATT against LTA, inactive: 0.273.
As to AGGGUUUGAUGUUCGGCUATT against MAT1A, the median seed-adjusted z-score is inactive: 0.501.
With GAUCCAAGGCGAUAAGGAATT against TRIM59 the figure was inactive: 0.941; with GCAAUCGAGUCACACUGAATT against BICC1, inactive: -0.352; with CCAGCGUAGUUUCAAGUAUTT against WNK1, inactive: -0.121.
As for GCCUGAGUCAUAAAGGGAATT against MLLT6, the figure is inactive: -0.281; as for AGAACGGGAUUGUUUAAUATT against MTHFSD, inactive: -0.298; as for GGAUUCACAAUCACGAUUATT against TTC13, inactive: 0.0363.
With AGCUUCUACCGUGUCCUUATT against UCK2 the figure was active: -1.51; with GCAGGAACCCAGUAGGAUATT against ERAP1, inactive: -0.0666; with GAUUGUCUGUUACGAAAAATT against SLC9A10, inactive: -0.0418.
Regarding GACCUACUCUAGUGACAGATT against TRERF1, the median seed-adjusted z-score was inactive: -0.0952.
As for GCAACAACGAGAACCGUGATT against ING1, the median seed-adjusted z-score is inactive: 0.121.
As for GGACCAAAAAUGUCGAGUATT against SCN9A, the figure is inactive: -0.581; as for GAACGGGUGUUUGACCACATT against EIF3C, inactive: 0.56.
As for GGUUUUGCACAGCGAGGAATT against B3GALT4, the figure is inactive: 0.233.
On to CACCCAAAGUGGGUGCUGATT against GZMM, for which the median seed-adjusted z-score was inactive: -0.17.
As for GGAAAGUCGUGAUCCUAGUTT against SLC30A9, the figure is inactive: -0.0779.
In the case of GCAUCGGAGUAAGGCAUUUTT against SLC15A1, the median seed-adjusted z-score is inactive: -0.693.
As for GGGUAAACGAUUCCAGCAATT against N-PAC, the figure is inactive: 0.0542.
With GCAGAUUGAUAUACUAGGATT against ZNF192 the figure was inactive: 0.
On to ACAUCACGCUGAGCACCCATT against PCBD1, for which the median seed-adjusted z-score was inactive: 0.
GAAGAGAUGUUCAACUGCATT against RAB35: the median seed-adjusted z-score is inactive: 0.317.
As for GCGACGGACUCAGAGAAAATT against KIFC2, the figure is inactive: 0.932; as for GUUUACCUCUAUGACCGAATT against SEC23IP, inactive: -0.0226.
For ACUGAGGCAUUUUCCCUAATT against KRT37, the median seed-adjusted z-score was inactive: 0.0484.
Take GCAUUUUGAUAGCUACAUATT against UGT3A1: the median seed-adjusted z-score is inactive: 0.864.
AGAUGUGCUUUGACGAGGATT against 12-Sep: the median seed-adjusted z-score is inactive: 0.286.
As for GCAGCAACCUUGUCAUCCATT against ZNF692, the figure is inactive: 0.556; as for CCAUCACCACCGCAUACUATT against RAB3A, inactive: -0.0787; as for GCUUUGACCGCUACCUGAATT against CXCR3, inactive: 0.693.
UCGUGUUCCUAGUCAUCUATT against TCIRG1: the median seed-adjusted z-score is inactive: 0.123.
For GUCCAAAGAGUGUCCGAUATT against RBM4, the median seed-adjusted z-score is inactive: 0.0148.
With ACAUUUUGAGUUGCAAGUATT against RICH2 the figure was inactive: 0.4.
Consider GUAGCAUUCCUCCAACAAATT against PIK3C2G, for which the median seed-adjusted z-score is inactive: 0.0251.
As for CAGUUUAUCUUCGUAUACATT against ATXN2, the figure is inactive: 0; as for AGCGGAUCCUAGAACCAGATT against DPF2, inactive: 0.373; as for AGGUGUCCACGUUACGCAATT against MLX, inactive: 0.126.
GAAACCAAGUCAUAUGAAATT against CRTAP: the median seed-adjusted z-score was inactive: 0.581.
With GCAUUAACCGAGACAAGCATT against NCF2, the median seed-adjusted z-score was inactive: -0.201.
As to ACAUUGACAAGAUCGACGATT against IRX1, the median seed-adjusted z-score is inactive: 0.673.
With GUUUUUGUCCUAGCCCAUATT against OTUD7A the figure was inactive: -0.53; with GGAAGAGACUCAACACCUUTT against PLXNB3, inactive: -0.0652.
With GCAGGCACAUGGUUCCUCUTT against KCNJ10 the figure was inactive: -0.0371.
As for GCUUUCCUCUCACCGCAAATT against TGM6, the median seed-adjusted z-score is inactive: 0.0811.
With GAGCGACAGUGACCAAGGATT against KLF7 the figure was inactive: 0.393; with ACUUCAUGCUUAACCAGUATT against CCBL1, inactive: -0.0496.
With GCGAAAAAGAUGACCGAAATT against SMC4 the figure was inactive: 0.646; with CCGUCUACGUGCUGCACUATT against GPR17, inactive: -0.309.
As for CCACCAAAGUUACCACGAATT against RBL1, the figure is inactive: -0.0547; as for CUAAAGGUCUUGUUACAUUTT against ASNS, active: -1.1; as for AGAUCCCACAGAUUAGCUATT against GRM2, inactive: -0.664.
For the sequence GGACAAUGCAGGAGAUAGATT against SETDB1, the median seed-adjusted z-score was inactive: 0.0517.
With AGAGGAAAAUCAACAAGAATT against CDX2, the median seed-adjusted z-score is inactive: 0.23.
For the sequence GUUUCAGAAUUGUAGAGCATT against LHX8, the median seed-adjusted z-score was inactive: 0.
Regarding CAAAGUAUGUGGUUCGUGATT against GBE1, the median seed-adjusted z-score is inactive: 0.
For GCAGAUGGAGUAAUCGUUUTT against SNX6, the median seed-adjusted z-score was inactive: 0.
GCCGCGCUGAUGAUCCUUATT against HTR1E: the median seed-adjusted z-score was inactive: 0.00535.
As for GAGUCUACCUUACCAUAUATT against SC5DL, the figure is inactive: -0.439; as for CCUUCAUAGUCAACAGCAATT against MGC16703, inactive: 0.55.
In the case of GCUCAUUACUCACAGUAUATT against PTPLA, the median seed-adjusted z-score is inactive: 0.291.
GGUGCGUAAGUAUCUGCUUTT against SLC12A9: the median seed-adjusted z-score is inactive: -0.0853.
Regarding GGCUCUUACAAGUCCUUAUTT against CHRM2, the median seed-adjusted z-score is inactive: 0.053.
Consider GGGAUUCCAUGUGCCGACATT against GNB2, for which the median seed-adjusted z-score is inactive: 0.561.
With CCAGCAUGCGGAAAACCUUTT against MYO18A the figure was inactive: 0.174; with CAGAUUACAUUUACCCGAUTT against SEPHS1, inactive: -0.102.
With CCUUCCUCAUUAAAAAUUATT against SPRED1, the median seed-adjusted z-score was inactive: 0.387.
With CCACCUUCCUUAUCGACAUTT against FZD8 the figure was inactive: -0.177; with AAGGCAAGCUGGUUCAGAATT against ZNF367, inactive: -0.377.
As for GGGAGAACAGCGACAAACATT against CBFB, the median seed-adjusted z-score was inactive: -0.0379.
With GAGUAUUUUGAAACCUUCATT against SULT1C2 the figure was inactive: 0; with GAAUACCACCUGCUAUAAATT against COPS8, inactive: 0.148.
As for GACUGUCACUUCUUACAGATT against ANGEL2, the median seed-adjusted z-score is inactive: -0.59.
As for GCAAAAUGAUCAUUAAUGATT against EIF3C, the figure is inactive: 0.56; as for GGUCCAUGGUGGAAGACGATT against MAL, inactive: 0.0733.
With CACUUGGAGUGGUGAAUCATT against NCL the figure was active: 1.33.

The record behind these values is PubChem BioAssay AID1347426 (Functional Genomics Laboratory (NCATS/FGL), 2020).
